# Assay results taken from patent US20260373226A1, “METHODS AND COMPOSITIONS FOR THE TREATMENT OF NEURODEGENERATIVE DISEASE” (Stealth BioTherapeutics Inc., priority 2022, published 2026).
# For at least one compound, name, drawing or mass did not settle the structure.
# Experiments:
# [1] = cited from earlier work
# [2] = test system: R6/2 model of Huntington's Disease; conditions: cited from earlier work
# [3] = test system: hTDP-43^A315T+ motor neurons; conditions: cited from earlier work
# [4] = test system: AAV-A53T-human alpha synuclein+dopaminergic neurons; conditions: cited from earlier work
# cardiolipin = experiment: Engagement of cardiolipin / mitochondrial structure, electron micrographs of hTDP-43 neurons; type: cell-based
# [5] = test system: transgenic hTDP-43 models; conditions: cited from earlier work
# [6] = test system: MAPT-P301L(+) iPSC derived tauopathy neurons; conditions: cited from earlier work
structure (smiles),measurement,setting,value
"Cc1cc(O)cc(C)c1C[C@H](NC(=O)[C@H](N)CCCNC(=N)N)C(=O)N[C@@H](CCCCN)c1nc(Cc2ccccc2)no1 [SBT-272, (R)-2-amino-N—((S)-1-(((S)-5-amino-1-(3-benzyl-1,2,4-oxadiazol-5-yl)pentyl)amino)-3-(4-hydroxy-2,6-dimethylphenyl)-1-oxopropan-2-yl)-5-guanidinopentanamide]",reported activity in more than one model,[1],"neuroprotection, survival benefits, lowering of protein aggregates, and improved mitochondrial function"
same,behavioral outcome,[2],improve behavioral outcome
same,protection from neurodegeneration,[3],protect hTDP-43^A315T+ motor neurons
same,protection from neurodegeneration,[4],AAV-A53T-human alpha synuclein+dopaminergic neurons from neurodegeneration
same,"targets cardiolipin, restoring mitochondrial structure and cellular energetics",cardiolipin; FIGS. 1A and 1B,"targets cardiolipin (CL), restoring mitochondrial structure and cellular energetics"
same,engagement of SBT-272 with cardiolipin,"cardiolipin; mitochondria in hTDP-43 neurons, 100 nM SBT-272, electron micrographs",showing engagement of SBT-272 with cardiolipin
same,in vitro and in vivo activity in transgenic hTDP-43 models,[5],in vitro and in vivo activity
same,protection from rotenone induced cell death,[6],protect MAPT-P301L(+) iPSC derived tauopathy neurons from rotenone induced cell death
